This note sets out measurements from article PMC3414498.

Chains of the proteins cited; added tags and fusions are not shown. Residues count along the entry.
UniProt Q9UBV2, residues 22-794: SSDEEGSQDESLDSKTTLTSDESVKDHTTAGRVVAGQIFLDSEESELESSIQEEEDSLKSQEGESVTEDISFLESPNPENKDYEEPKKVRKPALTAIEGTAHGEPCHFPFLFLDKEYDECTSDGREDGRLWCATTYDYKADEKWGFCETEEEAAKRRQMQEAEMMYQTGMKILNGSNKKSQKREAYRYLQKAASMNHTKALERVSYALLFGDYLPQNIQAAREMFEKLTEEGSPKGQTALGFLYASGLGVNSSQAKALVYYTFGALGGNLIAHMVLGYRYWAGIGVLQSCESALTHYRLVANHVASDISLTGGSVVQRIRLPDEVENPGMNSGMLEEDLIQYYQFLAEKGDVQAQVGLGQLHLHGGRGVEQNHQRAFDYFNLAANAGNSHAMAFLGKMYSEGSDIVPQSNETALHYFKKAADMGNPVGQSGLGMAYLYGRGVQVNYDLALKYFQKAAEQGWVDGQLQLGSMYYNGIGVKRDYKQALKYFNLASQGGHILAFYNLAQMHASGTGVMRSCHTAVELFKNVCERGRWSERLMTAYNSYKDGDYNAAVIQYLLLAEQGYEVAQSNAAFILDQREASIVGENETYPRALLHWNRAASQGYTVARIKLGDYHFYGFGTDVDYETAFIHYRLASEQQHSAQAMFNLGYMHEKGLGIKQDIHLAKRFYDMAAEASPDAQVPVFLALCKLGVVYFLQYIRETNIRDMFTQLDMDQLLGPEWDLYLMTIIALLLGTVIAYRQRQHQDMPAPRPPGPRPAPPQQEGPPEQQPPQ

Experiment [1] addresses T1, wild type tyrosinase (UniProt P14679).
T1 sequence: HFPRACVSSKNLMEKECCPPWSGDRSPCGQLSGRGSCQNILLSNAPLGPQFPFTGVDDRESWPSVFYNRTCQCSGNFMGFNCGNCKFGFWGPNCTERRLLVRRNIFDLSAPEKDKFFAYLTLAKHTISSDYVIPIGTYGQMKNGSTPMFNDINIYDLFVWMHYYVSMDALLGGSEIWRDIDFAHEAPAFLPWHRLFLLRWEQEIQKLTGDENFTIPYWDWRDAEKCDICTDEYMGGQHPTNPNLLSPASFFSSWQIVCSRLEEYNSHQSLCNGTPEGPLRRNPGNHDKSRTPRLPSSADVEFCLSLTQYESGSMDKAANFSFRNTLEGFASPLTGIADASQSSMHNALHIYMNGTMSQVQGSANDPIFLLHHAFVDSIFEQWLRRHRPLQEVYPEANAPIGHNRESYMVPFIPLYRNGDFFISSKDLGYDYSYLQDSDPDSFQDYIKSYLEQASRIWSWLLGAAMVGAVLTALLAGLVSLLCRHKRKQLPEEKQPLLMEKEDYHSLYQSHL
Kind of experiment: co-IP; HEK 293T cells co-transfected with tyrosinase and EDEM1 constructs, [35S]-methionine/cysteine pulse 20 or 30 min, chase up to 2 h, lysed in 2% CHAPS, 50 mM Hepes, 200 mM NaCl, pH 7.5; immunoprecipitated with anti-tyrosinase (T311) or anti-EDEM1 (or HA) antibodies, 24 h at 4°C; SDS-PAGE and autoradiography.

In experiment [2] the target is SEL1L (human (endogenous in HEK 293T)) (UniProt Q9UBV2). Kind of experiment: co-IP; HEK 293T cells overexpressing EDEM1 constructs, [35S] pulse-labelled and chased; endogenous calnexin or SEL1L immunoprecipitated with anti-calnexin or anti-SEL1L antibodies; SDS-PAGE and autoradiography.
The target of experiment [3] is T2, calnexin (human (endogenous in HEK 293T)) (UniProt P27824).
T2 sequence: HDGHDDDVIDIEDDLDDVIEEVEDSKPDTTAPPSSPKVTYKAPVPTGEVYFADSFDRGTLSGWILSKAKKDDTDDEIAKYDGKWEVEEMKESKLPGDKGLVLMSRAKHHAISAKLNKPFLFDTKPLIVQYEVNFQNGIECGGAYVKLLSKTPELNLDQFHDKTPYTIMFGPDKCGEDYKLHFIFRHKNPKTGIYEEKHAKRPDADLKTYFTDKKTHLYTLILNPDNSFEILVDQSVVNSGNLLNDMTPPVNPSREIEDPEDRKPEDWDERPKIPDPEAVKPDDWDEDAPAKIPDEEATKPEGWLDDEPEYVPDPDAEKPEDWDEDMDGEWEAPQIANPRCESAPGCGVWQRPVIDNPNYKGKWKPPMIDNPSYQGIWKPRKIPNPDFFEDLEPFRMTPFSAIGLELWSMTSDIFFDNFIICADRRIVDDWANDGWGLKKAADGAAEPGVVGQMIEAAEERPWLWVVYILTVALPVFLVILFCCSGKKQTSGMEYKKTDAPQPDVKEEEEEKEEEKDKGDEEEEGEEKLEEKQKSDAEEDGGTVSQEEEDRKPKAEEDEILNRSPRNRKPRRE
Described as above.

Experiment [4] addresses T3, EDEM1 wild type (mouse), HA-tagged (mouse) (UniProt Q925U4).
T3 sequence: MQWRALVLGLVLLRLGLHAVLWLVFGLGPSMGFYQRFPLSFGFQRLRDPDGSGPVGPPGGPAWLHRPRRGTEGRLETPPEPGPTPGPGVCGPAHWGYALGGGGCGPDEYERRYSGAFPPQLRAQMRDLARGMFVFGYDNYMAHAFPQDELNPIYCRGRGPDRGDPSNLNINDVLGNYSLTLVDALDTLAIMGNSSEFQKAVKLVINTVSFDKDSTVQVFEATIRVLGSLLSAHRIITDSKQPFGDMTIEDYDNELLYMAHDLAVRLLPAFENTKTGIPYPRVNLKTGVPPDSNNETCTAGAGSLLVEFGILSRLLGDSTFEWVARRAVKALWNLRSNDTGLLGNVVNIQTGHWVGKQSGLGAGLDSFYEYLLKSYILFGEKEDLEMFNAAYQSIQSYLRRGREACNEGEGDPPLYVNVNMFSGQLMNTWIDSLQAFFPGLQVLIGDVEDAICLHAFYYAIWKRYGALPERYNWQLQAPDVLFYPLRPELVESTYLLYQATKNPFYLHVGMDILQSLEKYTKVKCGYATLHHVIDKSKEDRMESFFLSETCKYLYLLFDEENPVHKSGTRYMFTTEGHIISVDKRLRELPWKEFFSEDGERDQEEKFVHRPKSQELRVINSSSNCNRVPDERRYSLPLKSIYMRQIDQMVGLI
Description: co-IP; HEK 293T cells co-transfected with tyrosinase and EDEM1 constructs, [35S]-methionine/cysteine pulse 20 or 30 min, chase up to 2 h, lysed in 2% CHAPS, 50 mM Hepes, 200 mM NaCl, pH 7.5; immunoprecipitated with anti-tyrosinase (T311) or anti-EDEM1 (or HA) antibodies, 24 h at 4°C; SDS-PAGE and autoradiography.

Numbering of substitutions follows the chain as printed. Numbers in names are those of the source. These are yes or no findings as the source states them, for the method shown. In cells and extracts the contact can be indirect. Some entries that bind do so weakly or less than the wild type. Tags and fused reporters may be left off the sequences shown.

B1: EDEM1 wild type (mouse), HA-tagged (protein, UniProt Q925U4 1-652)
chain: T3 sequence
B1: the binding entry in experiment [1], in experiment [2] and in experiment [3] was “binds” in each case.

B2: EDEM1-AVV (mouse EDEM1 triple mutant D365A/E488V/T574V), HA-tagged (protein, UniProt Q925U4 1-652)
chain: T3 sequence with D365A, E488V, T574V
As to B2, the binding result in experiment [1], in experiment [2] and in experiment [3] was “binds” in each case.

B3: EDEM1-ΔIDR (mouse EDEM1 lacking the ID region, amino acids 48-119), HA-tagged (protein, UniProt Q925U4)
chain: MQWRALVLGLVLLRLGLHAVLWLVFGLGPSMGFYQRFPLSFGFQRLRQLRAQMRDLARGMFVFGYDNYMAHAFPQDELNPIYCRGRGPDRGDPSNLNINDVLGNYSLTLVDALDTLAIMGNSSEFQKAVKLVINTVSFDKDSTVQVFEATIRVLGSLLSAHRIITDSKQPFGDMTIEDYDNELLYMAHDLAVRLLPAFENTKTGIPYPRVNLKTGVPPDSNNETCTAGAGSLLVEFGILSRLLGDSTFEWVARRAVKALWNLRSNDTGLLGNVVNIQTGHWVGKQSGLGAGLDSFYEYLLKSYILFGEKEDLEMFNAAYQSIQSYLRRGREACNEGEGDPPLYVNVNMFSGQLMNTWIDSLQAFFPGLQVLIGDVEDAICLHAFYYAIWKRYGALPERYNWQLQAPDVLFYPLRPELVESTYLLYQATKNPFYLHVGMDILQSLEKYTKVKCGYATLHHVIDKSKEDRMESFFLSETCKYLYLLFDEENPVHKSGTRYMFTTEGHIISVDKRLRELPWKEFFSEDGERDQEEKFVHRPKSQELRVINSSSNCNRVPDERRYSLPLKSIYMRQIDQMVGLI
For the molecule B3, the binding result in experiment [1] is “binds weakly”; in experiment [2], “binds”; in experiment [3] it was “binds”.

B4: wild type tyrosinase (protein, UniProt P14679 19-529)
chain: T1 sequence
Consider B4, for which, in experiment [4], the binding result is given as “binds”.
